The source of these data is article doi:10.1101/2020.07.05.188557.

Holding throughout (experiment): split reporter
For experiment [1], the target named is gap1-6TM-Cub-GST (S. cerevisiae).
For experiment [2], the target named is ssy1-2TM-Cub-GST (S. cerevisiae).
For experiment [3], the target named is agp1-2TM-Cub-GST (S. cerevisiae).
Experiment [4] has as its target agp1-10TM-Cub-GST (S. cerevisiae).
The target in experiment [5] is gal2-2TM-Cub-GST (S. cerevisiae).
The target in experiment [6] is hxt1-4TM-Cub-GST (S. cerevisiae).
Experiment [7] has as its target gap1-4TM-Cub-GST (S. cerevisiae).
Experiment [8] addresses ssy1-10TM-Cub-GST (S. cerevisiae).
Experiment [9] addresses gap1-12TM-Cub-GST (S. cerevisiae).
Experiment [10] deals with agp1-12TM-Cub-GST (S. cerevisiae).
For experiment [11], the target named is hxt1-10TM-Cub-GST (S. cerevisiae).
The target in experiment [12] is ssy1-6TM-Cub-GST (S. cerevisiae).
Experiment [13] deals with ssy1-8TM-Cub-GST (S. cerevisiae).
Experiment [14] concerns the target hxt1-2TM-Cub-GST (S. cerevisiae).
The target in experiment [15] is gap1-10TM-Cub-GST (S. cerevisiae).

Results are given in words; binding and its absence hold for the method and conditions named. Binding seen in cells or lysates may run through a third protein. For part of these data: Binding can be weak; no strength is given.

B1: Shr3-NubA (protein, UniProt Q02774 1-210)
chain: MFSYSDFCSIGTAMILSATTFLMGVFFSNMPYDYHLLFNPNSTQEHFDLALRHYQILHETPLPVIVTLCVVAGIGLVGGTIKVFKPNPELQMFEYCSLGLYVLAICVFLTNVKTGIDCSVSHNWGEVTENQGLAVIASSNIILLVMFAGVIILQIGLWYSNWDLQKRLKEFYAQEEREAANAGKKTEKVDNAKKNDNKSKGAQKRKNAKK
For the molecule B1, the binding entry in experiment [1] is on record as “binds”; in experiment [2], “binds”; in experiment [3], “binds”; in [4], “binds”; in [5], “no binding”; in [6], “no binding”. In addition, the binding entry in experiment [7] was “binds”; in experiment [8], “binds”; in [9], “binds weakly”; in experiment [10], “binds weakly”; in experiment [11] it was “no binding”; in experiment [12], “binds”. In addition, the results for the binding entry in experiment [13], in experiment [14] and in [15] were “binds”, “no binding” and “binds”, respectively.
